Paper PMC10378328
No constants are given. Whether binding was seen depends on the method and setting. For some assays here: In cells and extracts the contact can be indirect. Some binding calls cover weakened binding; strength is not graded here.

The chains behind the UniProt entries cited, without tags or fusion partners. Where a name states a change or a piece, a line headed by the entry shows the natural chain unless it says otherwise. A line that says so, or that is headed by a name, gives the form on record, which may keep a tag or linker. Residues count along the entry.
UniProt P04233: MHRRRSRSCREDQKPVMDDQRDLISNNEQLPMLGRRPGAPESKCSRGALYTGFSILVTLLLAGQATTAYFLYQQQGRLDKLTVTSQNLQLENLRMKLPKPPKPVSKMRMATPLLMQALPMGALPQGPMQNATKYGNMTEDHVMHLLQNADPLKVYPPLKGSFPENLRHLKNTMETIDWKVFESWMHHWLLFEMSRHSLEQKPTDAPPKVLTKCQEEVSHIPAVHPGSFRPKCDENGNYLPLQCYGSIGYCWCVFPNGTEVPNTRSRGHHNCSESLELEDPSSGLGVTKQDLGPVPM
recombinant human soluble CD74 ectodomain fragment (sCD74), His-tagged: residues 73-296 of P04233
UniProt P01033, residues 24-207: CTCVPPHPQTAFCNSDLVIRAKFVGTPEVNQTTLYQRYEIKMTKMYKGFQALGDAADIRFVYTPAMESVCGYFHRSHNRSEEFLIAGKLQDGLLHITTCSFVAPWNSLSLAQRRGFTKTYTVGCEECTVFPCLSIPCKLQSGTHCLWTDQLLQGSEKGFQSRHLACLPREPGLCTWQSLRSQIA

Legend:
[1] = target: recombinant human soluble CD74 ectodomain fragment (sCD74), His-tagged (human) (UniProt P04233); assay: pull-down; His-tag Dynabeads; recombinant human His-tagged sCD74 (500 ng) and recombinant human TIMP-1 (500 ng); Western blot with anti-His and anti-TIMP-1; both purified
[2] = target: N-terminal FLAG-tagged human CD74 (human) (UniProt P04233); assay: co-IP; lysate of HEK293 cells transfected with FLAG-CD74 incubated with anti-FLAG antibody, then 500 ng recombinant TIMP-1 overnight at 4 °C; protein G magnetic beads; lysis buffer with 1% Triton-X 100; Western blot; only the binder purified

Substance: recombinant human TIMP-1 (tissue inhibitor of metalloproteinases-1) (from UniProt P01033 24-207)
- binding [1]: binds
- binding [2]: binds
